Assay results taken from patent publication US20160244486A1, “AB Modulating Peptides” (ALZHYME PTY LTD, priority 2013, published 2016).
Entries after “also recorded” stand apart in the source; their conditions may differ. Part of at least one peptide drawing is inferred or uncertain, most often the ends. Square brackets hold non-standard residues; d marks the D form. Ends that are not written are not given here. Peptide text beside a SMILES is read from it. ξ: configuration not given here. ξT = CC(O)C(N)C(=O)O

Amino acid sequences for entries named in this document (tags omitted). Residues count along the entry.
UniProt P05067, 672-713 limits assumed: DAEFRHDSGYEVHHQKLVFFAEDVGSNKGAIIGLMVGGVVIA

Assays:
M17 neuroblastoma cells = assay: Neurotoxicity assay of oligomeric Aβ42 in M17 neuroblastoma cells (LDH, MTS); format: cell-based; details: 20 μM Aβ42, 4 days
Aβ42 oligomers (oAβ42) = target: T1, Aβ42 oligomers (oAβ42) (Homo sapiens, UniProt P05067); assay: Surface Plasmon Resonance/Biacore: Aβ42 oligomers on immobilised 15M S.A.; format: binding
T1 construct: Human synthetic Aβ42 peptide was purchased; purchased W. M. Keck Foundation Biotechnology Resource Laboratory (Yale University, New Haven, Conn.); host or cells: chemical synthesis

monomeric Aβ42 = target: T2, monomeric Aβ42 (Homo sapiens, UniProt P05067); assay: Surface Plasmon Resonance: 15M S.A. on immobilised monomeric Aβ42; format: binding; details: corrected for immobilised amount
T2 construct: Human synthetic Aβ42 peptide was purchased; purchased W. M. Keck Foundation Biotechnology Resource Laboratory (Yale University, New Haven, Conn.); host or cells: chemical synthesis

oligomeric Aβ42 = target: T3, oligomeric Aβ42 (Homo sapiens, UniProt P05067); assay: Surface Plasmon Resonance: 15M S.A. on immobilised oligomeric Aβ42; format: binding; details: corrected for immobilised amount
T3 construct: Human synthetic Aβ42 peptide was purchased; purchased W. M. Keck Foundation Biotechnology Resource Laboratory (Yale University, New Haven, Conn.); host or cells: chemical synthesis

Aβ42 [1] = target: T4, Aβ42 (Homo sapiens, UniProt P05067); assay: ThT endpoint assay of Aβ42 aggregation under conditions favouring oligomerisation; format: biochemical; set-up: Human synthetic Aβ42 peptide was purchased; purchased W. M. Keck Foundation Biotechnology Resource Laboratory (Yale University, New Haven, Conn.); host or cells: chemical synthesis; details: Aβ42 100 μM in F12, 24 h, 4° C., with test peptide at various molar ratios
Aβ42 [2] = target: T4, Aβ42; assay: PAGE (BN-PAGE / denaturing SDS-PAGE) and Western immunoblotting of Aβ42 aggregates; format: biochemical; set-up: Human synthetic Aβ42 peptide was purchased; purchased W. M. Keck Foundation Biotechnology Resource Laboratory (Yale University, New Haven, Conn.); host or cells: chemical synthesis; details: for Aβ42 aggregation smear (BN-PAGE and Western Blotting): non-denaturing
Aβ42 [3] = target: T4, Aβ42; assay: Atomic force microscopy of Aβ42 aggregates; format: biochemical; set-up: Human synthetic Aβ42 peptide was purchased; purchased W. M. Keck Foundation Biotechnology Resource Laboratory (Yale University, New Haven, Conn.); host or cells: chemical synthesis
Aβ42 [4] = target: T4, Aβ42; assay: Peripheral clearance of injected Aβ42 from plasma and liver levels in APOE4 knock-in mice; format: in vivo; set-up: Human synthetic Aβ42 peptide was purchased; purchased W. M. Keck Foundation Biotechnology Resource Laboratory (Yale University, New Haven, Conn.); host or cells: chemical synthesis; injected via tail vein into human APOEε4 knock-in mice
[5] = Aβ42 + RI-ANA1 1:20 (pellet and supernatant)
[6] = Aβ42 + RI-ANA1 1:20 (pellet and supernatant), listed as 15M S.A.
[7] = Aβ42 + RI-ANA1 1:20 (supernatant)

For CSCC[C@@H](NC(=O)[C@@H](CC(C)C)NC(=O)[C@@H](CCCCN)NC(=O)[C@H](N)CCCNC(=N)N)C(=O)N[C@H](CCC(N)=O)C(=O)N1CCC[C@@H]1C(=O)NC(C(=O)N[C@H](CCCNC(=N)N)C(=O)N[C@H](CC(N)=O)C(=O)N[C@H](CCCNC(=N)N)C(=O)N[C@H](CCCNC(=N)N)C(=O)N[C@H](CC(N)=O)C(=O)N1CCC[C@@H]1C(=O)N[C@H](CC(N)=O)C(=O)NC(C(=O)O)C(C)O)C(C)O (stereo partly drawn) [RI-ANA1, Arg-Lys-Leu-Met-Gln-Pro-Thr-Arg-Asn-Arg-Arg-Asn-Pro-Asn-Thr] (H-[dR][dK][dL][dM][dQ][dP][ξT][dR][dN][dR][dR][dN][dP][dN][ξT]-OH; N-terminus and C-terminus assumed), the “Aβ42 neurotoxicity (LDH assay)” value (M17 neuroblastoma cells) was “dose-dependent decrease; also recorded: did not result in loss of cell viability”, the “Aβ42 neurotoxicity (LDH assay)” value (M17 neuroblastoma cells; listed as 15M S.A.) was “reducing neurotoxicity in a dose-dependent manner and with similar potency” and the “oAβ42 binding to immobilised 15M S.A. in solution competition with free peptide” value (Aβ42 oligomers (oAβ42); oAβ42 20 μM co-injected with free peptide) was “dose-dependent reduction in oAβ42 binding”. The “oAβ42 binding to immobilised peptide (SPR)” value (Aβ42 oligomers (oAβ42); oAβ42 5-40 μM injected) was “bound 15M S.A in a dose-dependent manner”, the “binding to immobilised monomeric Aβ42 (SPR)” value (monomeric Aβ42) was “concentration-dependent manner” and the “binding to immobilised oligomeric Aβ42 (SPR)” value (oligomeric Aβ42) was “concentration-dependent manner”. For the same molecule, the “ThT fluorescence (Aβ42 aggregation)” value (Aβ42 [1]) was “dose-dependent decrease”, the “ThT fluorescence (Aβ42 aggregation)” value (Aβ42 [1]; listed as 15M S.A.) was “reduced ThT fluorescence (and thus Aβ42 aggregation and oligomerisation) in a dose-dependent manner” and the “insoluble Aβ42 aggregates / insoluble material” value (Aβ42 [2]; insoluble fraction, t=24 h) was “increasing amounts of insoluble material”. The “Aβ42 aggregation smear (BN-PAGE and Western Blotting)” value (Aβ42 [2]; soluble fraction) was “dose-dependent reduction”, the “soluble Aβ42 aggregates (denaturing SDS-PAGE/Western Blotting)” value (Aβ42 [2]; soluble fraction, t=24 h) was “dose-dependent reduction” and the “AFM medium aggregates (average)” value (Aβ42 [3]; [5]) was “Medium aggregates: 15 nm (average)”. The AFM small aggregates (Aβ42 [3]; [5]) was “Small aggregates: 2-6 nm”, the AFM extreme aggregates (Aβ42 [3]; [6]) was 25-30 nm and the AFM small aggregates (Aβ42 [3]; [6]) was 2-6 nm. For the same molecule, the “AFM main population diameter” value (Aβ42 [3]; [7]) was “Main population: diameter 1.5-4 nm”, the “AFM other: few larger aggregates” value (Aβ42 [3]; [7]) was “Other: few larger aggregates 8-12 nm” and the “liver Aβ42 level” value (Aβ42 [4]; Aβ42 20 μg + 1 mg RI-ANA1, at 60 min, p=0.07, not statistically significant) was “trend towards an increased uptake/retention”. For the same molecule, the “plasma Aβ42 level vs Aβ42 injected mice” value (Aβ42 [4]; Aβ42 20 μg + 1 mg RI-ANA1, tail vein, 2.5 min post-injection, western blot) was “significant reduction”.

With CSCC[C@@H](NC(=O)[C@@H](CC(C)C)NC(=O)[C@@H](CCCCN)NC(=O)[C@H](N)CCCNC(=N)N)C(=O)N[C@H](CCC(N)=O)C(=O)N1CCC[C@@H]1C(=O)N[C@@H](C(=O)N[C@H](CCCNC(=N)N)C(=O)N[C@H](CC(N)=O)C(=O)O)[C@H](C)O [RI-ANA5, Arg-Lys-Leu-Met-Gln-Pro-Thr-Arg-Asn] the “Aβ42 neurotoxicity (LDH assay)” value (M17 neuroblastoma cells) was “did not render a measurable effect”, the “ThT fluorescence (Aβ42 aggregation)” value (Aβ42 [1]) was “markedly reduced in potency” and the “ThT fluorescence (Aβ42 aggregation)” value (Aβ42 [1]; listed as 9M S.A.) was “overlapping activity with a scrambled control peptide”.

For “TNPNRRNRTPQMLKR [ANA1, Thr-Asn-Pro-Asn-Arg-Arg-Asn-Arg-Thr-Pro-Gln-Met-Leu-Lys-Arg]”, the “Aβ42 neurotoxicity (LDH assay)” value (M17 neuroblastoma cells) was “dose-dependent decrease”, the “Aβ42 neurotoxicity (LDH assay)” value (M17 neuroblastoma cells; listed as 15 mer) was “reducing neurotoxicity in a dose-dependent manner and with similar potency” and the “ThT fluorescence (Aβ42 aggregation)” value (Aβ42 [1]) was “dose-dependent decrease”. For the same molecule, the “ThT fluorescence (Aβ42 aggregation)” value (Aβ42 [1]; listed as 15 mer) was “reduced ThT fluorescence (and thus Aβ42 aggregation and oligomerisation) in a dose-dependent manner” and the “Aβ42 aggregation smear (BN-PAGE and Western Blotting)” value (Aβ42 [2]; soluble fraction) was “dose-dependent reduction”.

“NRTPQMLKR [ANA5, Asn-Arg-Thr-Pro-Gln-Met-Leu-Lys-Arg]” was tested, and the “Aβ42 neurotoxicity (LDH assay)” value (M17 neuroblastoma cells) was “performed less potently, but still with measurable effect”.
